US20230203203A1 (YISSUM RESEARCH DEVELOPMENT COMPANY OF THE HEBREW …, published 2023)
No constants are given. Whether binding was seen depends on the method and setting. Some results given as binding are weak or reduced against the parent protein; the word gives no strength.

T1: human CD177 (human, UniProt Q8N6Q3 22-408)
T1 construct: whole, on cells; On circulating human neutrophils of donors and patients; also called CD177 (on human neutrophils)
T1 sequence (looked up): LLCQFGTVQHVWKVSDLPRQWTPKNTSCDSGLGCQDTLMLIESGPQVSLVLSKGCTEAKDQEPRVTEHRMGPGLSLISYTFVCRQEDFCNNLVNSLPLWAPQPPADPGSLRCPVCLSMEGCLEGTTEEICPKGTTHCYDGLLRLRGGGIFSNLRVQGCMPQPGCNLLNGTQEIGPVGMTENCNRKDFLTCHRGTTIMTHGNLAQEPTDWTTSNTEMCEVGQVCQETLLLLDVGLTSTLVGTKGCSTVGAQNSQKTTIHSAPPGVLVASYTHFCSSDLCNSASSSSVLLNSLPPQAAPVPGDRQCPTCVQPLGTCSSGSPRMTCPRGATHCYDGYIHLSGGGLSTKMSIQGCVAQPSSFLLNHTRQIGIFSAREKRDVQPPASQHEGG

B1: phage presenting peptide 1.1 (KFP) (other)
chain: KFPDLDSRRLPHMSL
notes: detected with PE-conjugated anti-M13 antibody; not shown: phage coat protein pVIII flanking the inserted peptide
B2: phage presenting peptide 27 (LAT) (other)
chain: LATTHMVFSPDH
notes: not shown: phage coat protein pVIII flanking the inserted peptide
B3: phage presenting peptide PEL (other)
chain: PELDSKPYFPPL
notes: as for B2
B4: phage presenting peptide ELV (other)
chain: ELVTASMPRPNN
notes: as for B2
B5: phage presenting peptide SLE (other)
chain: SLESSPMAQLPQ
notes: as for B2
B6: phage presenting peptide SEL (other)
chain: SELRSTPLLVPS
notes: as for B2

target: T1, human CD177; experiment: flow cytometry on WBCs of a healthy volunteer, CD66b+ SSC-high gate, anti-M13-PE

| Binder | binding |
| --- | --- |
| B1 | binds |
| B2 | binds |
| B3 | binds |
| B4 | binds |
| B5 | binds |
| B6 | binds |

target: T1, human CD177; experiment: as the filing tells it; experiment described with the KFP-tetramer pull-down and donors' CD177 levels

| Binder | binding |
| --- | --- |
| B1 | binds |
| B2 | binds |
| B3 | binds |
| B4 | binds |
| B5 | binds |
| B6 | binds |

target: T1, human CD177; experiment: flow cytometry on WBCs of a lung cancer patient, CD66b+ SSC-high gate, anti-M13-PE

| Binder | binding |
| --- | --- |
| B1 | binds |
| B2 | binds |
| B3 | binds |
| B4 | binds |
| B5 | binds |
| B6 | binds |
